From PubChem BioAssay AID1347426 (Functional Genomics Laboratory (NCATS/FGL), 2020)
The campaign covered roughly 31,000 sequences. About 1,400 (4.5%) were called active.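 Rule for the calls: active = median seed-adjusted z-score above 1 or below -1; inactive = the rest.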 Some of the results follow.

experiment: Novel Modifiers of Survival Motor Neuron (SMN) Protein: Gene Identification via Genome-wide siRNA Screen; conditions: HEK293T SMN2-luciferase reporter, siRNA knockdown, 72 h; actives lie on both sides;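 note: luminescence tracks full-length SMN protein made from the SMN2 reporter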
In short: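 HEK293T cells stably expressing an SMN2 splicing/cDNA-luciferase reporter were reverse-transfected with a druggable-genome siRNA library and read by luminescence at 72 hours; hits defined by MAD score above 1.0 or below -1.0.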

Sequence | median seed-adjusted z-score
CCGAAUAUCUCUCACACGATT against ZNF667 | inactive: -0.101
CAGCAGGACCUGUUCCUCATT against NXNL1 | inactive: 0.334
GCUCCGGUCUGUUGUCACATT against LYPLA2 | inactive: 0.28
CAACAACAAUCAUAGCUGATT against SSBP1 | inactive: -0.456
CGAAACUACCGAUUCCACATT against PLA2G3 | inactive: 0.543
GGAGGUUCCCGGUAUCACATT against ELA1 | inactive: 0.687
GGACACCUGUGAACCGCAUTT against ARID3A | active: -1.11
UCAAAGCUUUUGACCAGAUTT against SLC5A10 | inactive: 0.669
GCACGGACCUAGCUAUGAUTT against TC2N | inactive: 0.461
GAAAUAGCAUCAGCAGAUATT against LBR | inactive: 0.303
GGAUCAUCAUGGAAUUGUATT against PTK2B | active: 1.71
CGAACUCGCUAGUGACAUATT against NRAP | inactive: -0.205
AGCAAUUCACAAAAUGUGATT against LALBA | inactive: -0.148
CCGUGUACCUGUUCACCAATT against CACNG7 | inactive: -0.403
CCCACUACUUUGCAAGUAATT against BLM | inactive: -0.0654
ACAAUGUGGUCUACCGAUATT against SLCO3A1 | inactive: -0.0387
CCAUCUCCCUUGUGCUGCATT against NINJ1 | inactive: -0.061
GAACUUCACUUAGGACAUUTT against ATP6V1G1 | inactive: 0.311
GAGACGGACUCAGACAGAATT against SIGLEC10 | inactive: 0.0542
CAACAUAUGGUACCGAGUATT against MEF2C | inactive: -0.632
UAGGGAAGCUGAAAGUGCATT against OXER1 | inactive: -0.471
CUAUAGUGACCUAAACUAUTT against ACCN5 | inactive: 0.227
GCACGAAUGUUGAGUUCGATT against PTPRD | inactive: 0.425
CCAUGUCAGUGAUCAUUGUTT against CPNE1 | inactive: -0.0206
GGAUAACACCUGCUUUUCATT against DUSP12 | inactive: -0.0123
GUAUUUCUUGGAUUGGAUATT against SAR1B | inactive: 0.693
CCAACACCGACUACUUAGATT against ATG4C | inactive: -0.414
AGGUUUCAGUGGUUUGGAUTT against COL1A1 | inactive: 0
GUAGCUGGGUGGAUCAGAATT against BPGM | inactive: 0.408
GCAGUAUGCACUACUCUAATT against ATP11C | inactive: 0.102

Laid out differently: results already given
Sequence	median seed-adjusted z-score
GUAGCUGGGUGGAUCAGAATT against BPGM	inactive: 0.408
GCAGUAUGCACUACUCUAATT against ATP11C	inactive: 0.102
